Source: PubChem BioAssay AID1487 (National Center for Advancing Translational Sciences (NCATS), 2009)
Some of the results follow. Further columns of the screen follow, without active or inactive calls. The list favours compounds with an active or inconclusive main result. Words in brackets tell the shape of the fitted curve; partial curves, single points and poor fits give uncertain potencies.

Test: qHTS Assay for Modulators of Lamin A Splicing
Details: HeLa LMNA splicing GFP/RFP minigene ratio, 48 h
Summary of the method: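 Read-out is the ratio of GFP to DsRed2 object intensity, acquired by 488 nm laser-scanning cytometry on HeLa lamin A-EGFP minigene reporter cells. Compound incubation 48 hrs at 37 °C in Opti-MEM with 2% FBS; DMSO 0.5% final.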

[1] = measured here: GFP splicing reporter channel
[2] = measured here: RFP viability control channel

| SMILES | AC50 [1] | AC50 [2] |
| --- | --- | --- |
| O=C(CN1CCOCC1)Nc1ncc(Cc2cccc(Cl)c2Cl)s1 | 35.5 µM [rising, single point] | 35.5 µM [rising, single point] |
| CCOc1ccc(/C=C(\C(=O)O)c2ccc(S(=O)(=O)N3CCOCC3)s2)cc1OC | 0.224 µM [falling, full curve, poor fit] | 0.447 µM [falling, full curve, poor fit] |
| Cc1ccc(S(=O)(=O)NC(N)=NCCc2ccccc2)cc1C | – | 17.8 µM [rising, single point] |
| CC(C)(C)C1CCC(=NNC(=S)Nc2cccnc2)CC1 (stereo not given) | 35.5 µM [rising, single point] | – |
| O=C(/C=C/c1cccc([N+](=O)[O-])c1)NCCSCc1cccc(Cl)c1 | – | 12.6 µM [rising, partial curve, poor fit] |
| Cc1ccc(NCc2nnc3n2CCCCC3)cc1Cl | 0.891 µM [falling, full curve, poor fit] | 0.708 µM [falling, full curve, poor fit] |
| Cc1ccc(NC(=S)NNc2ncc(C(F)(F)F)cc2Cl)c(C)c1 | – | 17.8 µM [rising, single point] |
| CCOCCN1CCN(c2c(CC)c(C)nc3cc(-c4cc(OC)cc(OC)c4)nn23)CC1 | – | 15.8 µM [rising, partial curve] |
| CCOC(=O)C(C)Sc1ncnc2c1c(-c1ccccc1)cn2-c1ccc(OC)cc1 (stereo not given) | – | 3.55 µM [rising, full curve, poor fit] |
| O[C@H](c1cc(C(F)(F)F)nc2c(C(F)(F)F)cccc12)[C@H]1CCCCN1 | 5.62 µM [falling, partial curve] | 8.91 µM [falling, partial curve] |
| COc1ccc(S(=O)(=O)NCCSCc2cccc(C)c2)cc1Br | 0.794 µM [falling, full curve, poor fit] | – |
| C/C(=N/Nc1nc(C)cc(-c2ccccc2)n1)c1ccco1 | – | 35.5 µM [rising, single point] |
| Cc1cc(C)c(/C=C/c2onc(C)c2S(=O)(=O)N2CCC(C(=O)N3CCN(c4ccccc4)CC3)CC2)c(C)c1 | 4.47 µM [falling, partial curve, poor fit] | 2.24 µM [falling, partial curve] |
| COc1cccc(N(C(=O)Cn2nnc(-c3ccc(F)cc3)n2)C(C(=O)NCC2CCCO2)c2ccc(Cl)cc2)c1 (stereo not given) | 7.94 µM [falling, partial curve] | 7.94 µM [falling, full curve, poor fit] |
